The list shows a part of the results.

Sequences of proteins named here, by UniProt entry; tags and fusion partners are left off. A change or cut given only in a name is not applied to a line headed by its entry.
UniProt Q15393: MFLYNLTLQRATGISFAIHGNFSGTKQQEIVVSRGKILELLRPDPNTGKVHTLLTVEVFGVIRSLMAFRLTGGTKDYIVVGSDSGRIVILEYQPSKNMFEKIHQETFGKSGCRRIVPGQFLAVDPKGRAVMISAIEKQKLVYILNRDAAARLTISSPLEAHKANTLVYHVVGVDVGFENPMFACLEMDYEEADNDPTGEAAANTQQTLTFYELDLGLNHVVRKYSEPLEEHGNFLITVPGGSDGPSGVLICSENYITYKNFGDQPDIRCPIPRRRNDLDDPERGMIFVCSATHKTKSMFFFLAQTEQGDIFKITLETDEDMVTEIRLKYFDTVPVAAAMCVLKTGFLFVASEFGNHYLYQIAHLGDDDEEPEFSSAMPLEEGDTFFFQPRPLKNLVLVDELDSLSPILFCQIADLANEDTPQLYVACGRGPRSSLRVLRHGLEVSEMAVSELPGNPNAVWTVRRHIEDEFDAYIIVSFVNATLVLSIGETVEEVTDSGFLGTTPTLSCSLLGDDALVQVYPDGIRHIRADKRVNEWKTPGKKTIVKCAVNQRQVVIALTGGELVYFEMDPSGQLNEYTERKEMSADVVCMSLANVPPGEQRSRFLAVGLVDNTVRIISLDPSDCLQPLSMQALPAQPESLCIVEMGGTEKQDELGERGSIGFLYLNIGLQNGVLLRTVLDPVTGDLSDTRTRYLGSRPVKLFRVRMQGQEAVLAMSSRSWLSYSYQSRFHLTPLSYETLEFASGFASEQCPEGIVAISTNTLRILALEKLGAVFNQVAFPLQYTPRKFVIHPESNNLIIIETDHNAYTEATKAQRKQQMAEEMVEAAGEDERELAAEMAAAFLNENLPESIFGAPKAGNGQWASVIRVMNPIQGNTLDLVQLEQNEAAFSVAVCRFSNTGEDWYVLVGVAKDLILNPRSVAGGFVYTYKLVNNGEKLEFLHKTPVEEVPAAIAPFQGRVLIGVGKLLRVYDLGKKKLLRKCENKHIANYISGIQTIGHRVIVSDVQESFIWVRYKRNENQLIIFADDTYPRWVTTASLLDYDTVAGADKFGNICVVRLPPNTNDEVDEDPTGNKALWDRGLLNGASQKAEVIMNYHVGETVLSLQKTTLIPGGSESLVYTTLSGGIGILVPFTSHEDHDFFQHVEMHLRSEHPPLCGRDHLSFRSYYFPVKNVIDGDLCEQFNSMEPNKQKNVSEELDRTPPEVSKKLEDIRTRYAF
UniProt O60613, whole entry, looked up: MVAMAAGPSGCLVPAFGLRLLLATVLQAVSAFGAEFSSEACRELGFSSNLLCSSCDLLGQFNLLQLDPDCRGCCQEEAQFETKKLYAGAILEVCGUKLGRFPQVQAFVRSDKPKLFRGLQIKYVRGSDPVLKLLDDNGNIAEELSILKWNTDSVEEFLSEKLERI
UniProt P29353: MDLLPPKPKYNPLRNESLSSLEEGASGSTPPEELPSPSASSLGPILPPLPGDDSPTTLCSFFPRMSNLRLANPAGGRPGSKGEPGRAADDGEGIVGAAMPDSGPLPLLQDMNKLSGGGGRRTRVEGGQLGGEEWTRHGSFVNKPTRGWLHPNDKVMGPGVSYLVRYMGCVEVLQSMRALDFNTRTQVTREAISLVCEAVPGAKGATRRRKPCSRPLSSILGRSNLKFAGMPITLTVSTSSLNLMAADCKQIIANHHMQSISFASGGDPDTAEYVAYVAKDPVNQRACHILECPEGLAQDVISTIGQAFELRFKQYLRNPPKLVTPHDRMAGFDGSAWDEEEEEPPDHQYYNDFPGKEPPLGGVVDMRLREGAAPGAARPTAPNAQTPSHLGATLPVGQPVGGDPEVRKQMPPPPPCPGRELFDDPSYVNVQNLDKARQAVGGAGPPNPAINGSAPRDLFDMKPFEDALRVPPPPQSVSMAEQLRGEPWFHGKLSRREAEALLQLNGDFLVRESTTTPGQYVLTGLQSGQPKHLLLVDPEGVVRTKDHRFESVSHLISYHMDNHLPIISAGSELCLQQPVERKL
UniProt Q68CR1: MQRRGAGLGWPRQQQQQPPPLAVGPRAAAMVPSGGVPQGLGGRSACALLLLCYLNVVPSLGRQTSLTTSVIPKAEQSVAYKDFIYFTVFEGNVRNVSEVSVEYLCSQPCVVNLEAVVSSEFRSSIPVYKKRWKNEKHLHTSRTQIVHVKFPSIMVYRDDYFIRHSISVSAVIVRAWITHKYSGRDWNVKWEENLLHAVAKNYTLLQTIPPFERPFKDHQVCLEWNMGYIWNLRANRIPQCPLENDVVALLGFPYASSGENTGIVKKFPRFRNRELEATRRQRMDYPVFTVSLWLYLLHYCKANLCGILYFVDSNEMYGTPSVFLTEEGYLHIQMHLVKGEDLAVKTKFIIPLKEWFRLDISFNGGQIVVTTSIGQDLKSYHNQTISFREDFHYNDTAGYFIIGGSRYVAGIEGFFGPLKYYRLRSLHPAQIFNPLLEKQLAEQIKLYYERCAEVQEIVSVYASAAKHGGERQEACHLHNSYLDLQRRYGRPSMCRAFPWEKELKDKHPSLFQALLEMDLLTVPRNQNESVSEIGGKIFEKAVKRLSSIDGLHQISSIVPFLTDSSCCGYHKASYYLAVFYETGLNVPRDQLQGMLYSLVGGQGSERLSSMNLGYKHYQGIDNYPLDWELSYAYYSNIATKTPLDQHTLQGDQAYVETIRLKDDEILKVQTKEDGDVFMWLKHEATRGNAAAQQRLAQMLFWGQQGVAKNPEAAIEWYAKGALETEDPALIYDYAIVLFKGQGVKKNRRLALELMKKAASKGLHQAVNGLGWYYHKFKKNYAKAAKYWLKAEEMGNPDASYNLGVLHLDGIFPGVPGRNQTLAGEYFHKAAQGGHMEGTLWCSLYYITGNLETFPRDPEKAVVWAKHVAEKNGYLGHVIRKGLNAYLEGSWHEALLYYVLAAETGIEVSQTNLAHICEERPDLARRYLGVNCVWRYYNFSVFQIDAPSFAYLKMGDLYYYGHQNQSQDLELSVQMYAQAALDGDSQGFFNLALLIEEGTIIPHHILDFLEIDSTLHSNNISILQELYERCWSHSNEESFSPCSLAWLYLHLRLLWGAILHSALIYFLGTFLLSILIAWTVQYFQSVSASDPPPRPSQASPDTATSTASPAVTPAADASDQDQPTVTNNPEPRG
UniProt Q96FS4: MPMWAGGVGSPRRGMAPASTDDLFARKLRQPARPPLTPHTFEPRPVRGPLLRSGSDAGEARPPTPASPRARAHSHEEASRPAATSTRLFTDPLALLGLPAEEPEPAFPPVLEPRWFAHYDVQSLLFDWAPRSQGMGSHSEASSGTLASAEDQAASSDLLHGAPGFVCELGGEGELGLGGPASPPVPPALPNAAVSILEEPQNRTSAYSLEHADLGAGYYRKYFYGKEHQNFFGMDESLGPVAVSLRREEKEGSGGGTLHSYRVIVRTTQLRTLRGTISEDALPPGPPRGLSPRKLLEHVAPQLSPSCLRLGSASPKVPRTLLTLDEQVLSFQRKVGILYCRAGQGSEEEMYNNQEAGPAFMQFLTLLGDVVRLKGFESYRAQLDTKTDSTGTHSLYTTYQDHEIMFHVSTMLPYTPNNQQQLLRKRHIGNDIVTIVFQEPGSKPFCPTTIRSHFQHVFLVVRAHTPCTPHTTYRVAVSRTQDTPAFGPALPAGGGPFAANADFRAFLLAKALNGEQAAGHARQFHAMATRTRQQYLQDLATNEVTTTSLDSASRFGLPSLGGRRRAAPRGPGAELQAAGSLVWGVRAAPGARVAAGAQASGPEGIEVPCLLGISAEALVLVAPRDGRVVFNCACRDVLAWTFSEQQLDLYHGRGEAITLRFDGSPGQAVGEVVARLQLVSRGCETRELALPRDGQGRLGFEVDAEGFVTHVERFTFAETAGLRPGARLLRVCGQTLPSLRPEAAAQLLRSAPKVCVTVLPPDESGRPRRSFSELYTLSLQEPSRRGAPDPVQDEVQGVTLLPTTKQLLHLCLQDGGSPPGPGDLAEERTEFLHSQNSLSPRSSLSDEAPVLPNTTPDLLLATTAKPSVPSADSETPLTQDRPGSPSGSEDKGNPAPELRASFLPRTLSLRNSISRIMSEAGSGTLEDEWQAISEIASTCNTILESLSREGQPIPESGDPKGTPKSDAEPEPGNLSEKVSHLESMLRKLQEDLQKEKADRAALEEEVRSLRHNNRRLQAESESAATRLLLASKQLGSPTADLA
UniProt Q12872: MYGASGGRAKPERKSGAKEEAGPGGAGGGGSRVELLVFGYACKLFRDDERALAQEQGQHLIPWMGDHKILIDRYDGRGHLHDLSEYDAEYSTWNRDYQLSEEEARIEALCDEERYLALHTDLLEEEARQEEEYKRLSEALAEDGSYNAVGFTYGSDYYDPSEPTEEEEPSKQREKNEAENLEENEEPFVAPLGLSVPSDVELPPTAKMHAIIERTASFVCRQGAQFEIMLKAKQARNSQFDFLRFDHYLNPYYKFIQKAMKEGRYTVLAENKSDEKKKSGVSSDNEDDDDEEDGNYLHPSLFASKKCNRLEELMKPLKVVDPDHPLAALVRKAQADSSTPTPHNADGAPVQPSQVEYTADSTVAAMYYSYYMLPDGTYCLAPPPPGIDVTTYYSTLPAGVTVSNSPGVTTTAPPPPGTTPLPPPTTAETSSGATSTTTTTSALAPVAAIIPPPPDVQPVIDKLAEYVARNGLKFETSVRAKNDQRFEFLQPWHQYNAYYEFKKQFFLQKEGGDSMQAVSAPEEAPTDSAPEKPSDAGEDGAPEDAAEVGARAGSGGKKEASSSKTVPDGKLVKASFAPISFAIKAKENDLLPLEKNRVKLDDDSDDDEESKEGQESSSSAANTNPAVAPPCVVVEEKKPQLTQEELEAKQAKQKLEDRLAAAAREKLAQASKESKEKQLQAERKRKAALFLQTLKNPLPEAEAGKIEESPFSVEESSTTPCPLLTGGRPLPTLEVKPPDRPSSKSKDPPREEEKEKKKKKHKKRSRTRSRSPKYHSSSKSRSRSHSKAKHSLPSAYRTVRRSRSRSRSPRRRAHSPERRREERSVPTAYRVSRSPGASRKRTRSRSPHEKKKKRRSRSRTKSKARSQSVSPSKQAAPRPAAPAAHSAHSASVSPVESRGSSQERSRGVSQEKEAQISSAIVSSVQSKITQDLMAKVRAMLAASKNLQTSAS
UniProt O75635: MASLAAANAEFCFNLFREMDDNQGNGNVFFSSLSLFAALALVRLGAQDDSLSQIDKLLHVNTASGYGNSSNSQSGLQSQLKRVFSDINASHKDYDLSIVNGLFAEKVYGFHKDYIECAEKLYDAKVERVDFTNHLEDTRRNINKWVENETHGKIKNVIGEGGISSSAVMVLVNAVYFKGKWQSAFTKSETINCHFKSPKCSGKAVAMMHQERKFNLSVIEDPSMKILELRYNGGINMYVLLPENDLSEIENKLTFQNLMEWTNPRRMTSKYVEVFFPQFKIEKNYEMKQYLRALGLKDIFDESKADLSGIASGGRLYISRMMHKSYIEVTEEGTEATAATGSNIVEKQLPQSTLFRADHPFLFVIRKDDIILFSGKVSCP
UniProt O95562: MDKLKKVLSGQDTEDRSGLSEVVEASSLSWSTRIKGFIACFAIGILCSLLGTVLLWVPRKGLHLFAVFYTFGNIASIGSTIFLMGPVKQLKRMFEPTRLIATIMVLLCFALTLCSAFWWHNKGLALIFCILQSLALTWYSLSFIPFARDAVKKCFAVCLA
UniProt Q9NPR2: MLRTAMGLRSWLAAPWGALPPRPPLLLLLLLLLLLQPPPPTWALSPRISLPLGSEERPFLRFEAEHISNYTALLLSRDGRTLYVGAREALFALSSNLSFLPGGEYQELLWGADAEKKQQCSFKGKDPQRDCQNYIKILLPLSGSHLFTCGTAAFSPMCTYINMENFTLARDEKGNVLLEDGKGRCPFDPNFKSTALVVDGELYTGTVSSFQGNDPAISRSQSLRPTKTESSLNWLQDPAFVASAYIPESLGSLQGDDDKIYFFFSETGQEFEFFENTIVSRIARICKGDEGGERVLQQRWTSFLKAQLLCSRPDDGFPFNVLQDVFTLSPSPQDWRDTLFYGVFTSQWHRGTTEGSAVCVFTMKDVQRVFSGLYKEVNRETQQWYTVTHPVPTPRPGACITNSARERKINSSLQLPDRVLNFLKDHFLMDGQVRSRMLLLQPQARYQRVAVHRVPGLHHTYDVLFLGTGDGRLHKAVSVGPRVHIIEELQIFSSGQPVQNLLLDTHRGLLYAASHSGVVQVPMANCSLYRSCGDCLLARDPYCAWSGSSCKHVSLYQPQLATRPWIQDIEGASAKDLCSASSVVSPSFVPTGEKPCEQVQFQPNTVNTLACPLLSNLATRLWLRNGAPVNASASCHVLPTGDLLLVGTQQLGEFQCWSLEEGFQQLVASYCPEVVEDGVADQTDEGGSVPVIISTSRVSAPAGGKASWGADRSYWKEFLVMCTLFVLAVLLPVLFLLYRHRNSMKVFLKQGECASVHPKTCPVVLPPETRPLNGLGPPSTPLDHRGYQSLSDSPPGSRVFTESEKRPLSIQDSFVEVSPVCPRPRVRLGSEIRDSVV

Compound in the assay: c1cn2cc(-c3ccc4cn[nH]c4c3)nc(Nc3ccc(N4CCOCC4)cc3)c2n1 [entospletinib]
The assay can be described thus: log2 fold change, soluble protein after heating vs DMSO (PISA); higher = thermal stabilisation; K562 cells, 10 uM, 30 min; active = over 0.2 and 3.5 SD of the protein, either way, in both replicates (recomputed). A digest of the protocol: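 Values are thermal stability changes relative to control samples and are taken from duplicates. They are stated as log2 fold changes. Before quantification by TMTpro 16plex LC-MS/MS with equalised channel sums, K562 cells at 2×10^6 cells/mL were treated with 10 μM compound for 30 min, heated in aliquots for 3 min across 48°C-58°C, pooled, extracted in PBS with 0.5% NP-40 at 4°C, and centrifuged at 21,000xg for 90 min to give the soluble supernatant.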
As to SIRT3 (UniProt Q9NTG7), the log2 fold change is inactive: 0.084.

Take SF3B3 (UniProt Q15393): the log2 fold change is inactive: -0.077.

Turning to SERPING1 isoform 3 (UniProt P05155), the log2 fold change is inactive: 0.172.

For SELENOF (UniProt O60613), the log2 fold change was inactive: -0.062.

As for SIN3A (UniProt Q96ST3), the log2 fold change is inactive: -0.028.

Regarding SHC1 isoform 6 (UniProt P29353), the log2 fold change is inactive: -0.016.

Turning to SEL1L3 (UniProt Q68CR1), the log2 fold change is inactive: 0.015.

Turning to SIPA1 (UniProt Q96FS4), the log2 fold change was inactive: 0.033.

As to SFSWAP isoform 2 (UniProt Q12872), the log2 fold change was inactive: -0.011.

Take SIX5 (UniProt Q8N196): the log2 fold change is inactive: -0.047.

For the target SERPINB7 (UniProt O75635), the log2 fold change is inactive: -0.052.

Consider SFT2D2 (UniProt O95562), for which the log2 fold change is inactive: 0.129.

Consider SEMA4B (UniProt Q9NPR2), for which the log2 fold change is inactive: -0.029.

The values above are taken from the supplement of paper PMC10849652.
